Results are given in words; binding and its absence hold for the method and conditions named. Some binding calls cover weakened binding; strength is not graded here. Where a sequence is shown, tags or fusion partners need not be part of it.
Target: T1, colicin E3 immunity protein (ImmE3) with a C-terminal His6 tag (E. coli) (UniProt P02984)
T1 sequence: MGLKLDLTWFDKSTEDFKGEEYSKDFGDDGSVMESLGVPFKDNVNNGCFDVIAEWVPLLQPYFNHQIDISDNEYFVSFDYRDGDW
Assay: co-purification by affinity chromatography; colicin co-expressed with its immunity protein carrying a C-terminal His6 tag in BL21(DE3); complex purified by affinity chromatography through the tag (Ni-NTA)

B1: hybrid colicin E2/colicin E3 (protein, UniProt P04419 1-456; P00646 455-551)
chain: MSGGDGRGHNTGAHSTSGNINGGPTGLGVGGGASDGSGWSSENNPWGGGSGSGIHWGGGSGHGNGGGNGNSGGGSGTGGNLSAVAAPVAFGFPALSTPGAGGLAVSISAGALSAAIADIMAALKGPFKFGLWGVALYGVLPSQIAKDDPNMMSKIVTSLPADDITESPVSSLPLDKATVNVNVRVVDDVKDERQNISVVSGVPMSVPVVDAKPTERPGVFTASIPGAPVLNISVNNSTPEVQTLSPGVTNNTDKDVRPAGFTQGGNTRDAVIRFPKDSGHNAVYVSVSDVLSPDQVKQRQDEENRRQQEWDATHPVEAAERNYERARAELNQANEDVARNQERQAKAVQVYNSRKSELDAANKTLADAIAEIKQFNRFAHDPMAGGHRMWQMAGLKAQRAQTDVNNKQAAFDAAAKEKSDADAALSAAQERRKQKENKEKDAKDKLDKESKRNKPGKGFKDYGHDYHPAPKTENIKGLGDLKPGIPKTPKQNGGGKRKRWTGDKGRKIYEWDSQHGELEGYRASDGQHLGSFDPKTGNQLKGPDPKRNIKKYL
- binding: binds

Reference: article PMC4026351
